Percent effect of library compounds

By UniProt entry, the sequences of proteins in these tests, tags left out. Residues count along the entry.
UniProt A4I591, 1-473: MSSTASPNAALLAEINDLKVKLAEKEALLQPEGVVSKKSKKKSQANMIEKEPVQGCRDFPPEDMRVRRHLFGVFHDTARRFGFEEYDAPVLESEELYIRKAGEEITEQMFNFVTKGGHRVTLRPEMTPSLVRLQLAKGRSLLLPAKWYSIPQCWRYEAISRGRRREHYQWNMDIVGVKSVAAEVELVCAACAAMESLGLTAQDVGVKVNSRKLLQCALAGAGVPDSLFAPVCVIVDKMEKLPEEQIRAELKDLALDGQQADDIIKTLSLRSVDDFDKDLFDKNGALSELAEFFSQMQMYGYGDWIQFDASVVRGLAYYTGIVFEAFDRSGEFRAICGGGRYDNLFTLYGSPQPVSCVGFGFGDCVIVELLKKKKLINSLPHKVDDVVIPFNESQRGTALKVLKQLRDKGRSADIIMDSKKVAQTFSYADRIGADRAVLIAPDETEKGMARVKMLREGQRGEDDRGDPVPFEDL

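Enzyme assay of histidyl-tRNA synthetase; the read-out is not stated. Target: Histidine-tRNA ligase, Leishmania infantum (UniProt A4I591). Tested at 30 µM. Higher reads as stronger inhibition (inferred: compounds with an IC50 in retests scored well above the rest). The assay is labelled LdHisRS but filed under L. infantum. Of about 69,000 compounds tested this way, about 410 (0.6%) reached 50% or more in at least one test.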

Each number is a percent effect as filed. How 0% and 100% were set is not recorded. Most values in the screen are low, and negative values occur. This is an unselected part of the compounds tested.

SMILES | effect
CS(=O)(=O)Cc1nc(CN2CCOc3ccccc3C2)cs1 | -46.15
Cc1nnc(NC(=O)N2CCN(Cc3ccc(F)cc3)C(=O)C2)s1 | 2.778
CN(C)S(=O)(=O)N1CCN(CC2CCOc3ccccc3C2)CC1 (configuration not stated) | 12.33
COCCN1C(=O)CC[C@]12CC[C@@H](NCc1nccs1)CC2 | 3.509
COCCN(C)C(=O)c1nc2c(s1)CCCN2C(=O)C1CC1 | 8.772
O=C(O)CN1CCc2onc(C(c3ccccc3)c3ccccc3)c2C1 | 6.806
CC(NC(=O)NCc1cscn1)c1ccc(N2CCOCC2)cc1 (configuration not stated) | 9.677
CC(C)Cc1nc(CN2CCC3(CCCO3)CCC2=O)no1 (configuration not stated) | 8.333
CCCSc1ncc(-c2nccn2CCO)cn1 | 12.8
CN(C)Cc1nc2c(o1)CN(C(=O)c1ccncc1F)C2 | 18
CCOCCNC1(c2ccc(Cl)cc2)CCOCC1 | 19.18
CCc1nc2c(s1)C(N(C)C(=O)c1csnn1)CCC2 (configuration not stated) | 36.94
CNc1nc(C(=O)N2CCCCC2c2ccc(CN(C)C)cc2)cs1 (configuration not stated) | 5.556
CSCCC(=O)N[C@H]1CC[C@H](Nc2nccc(-c3ccncc3)n2)C1 | 0
CN(Cc1cnc(N)nc1)C(=O)c1coc(COc2ccccc2)n1 | 4.425
CC(=O)N1CCc2[nH]cnc2C12CCN(C(=O)CCn1cccn1)CC2 | 6
CC(C)c1nc2n(n1)CC(NCC(=O)NCCC1=CCCCC1)CC2 (configuration not stated) | 19.18
Cc1nc(CN2CCN(c3cc(CCN)ncn3)CC2)cs1 | 12
Cc1cccc(CN2Cc3[nH]nc(COCC4CC4)c3C2)n1 | -1.754

Repeated from the top, 2 entries:

SMILES	effect
CS(=O)(=O)Cc1nc(CN2CCOc3ccccc3C2)cs1	-46.15
Cc1nnc(NC(=O)N2CCN(Cc3ccc(F)cc3)C(=O)C2)s1	2.778

The values are deposited in ChEMBL (CHEMBL3988442, “University of Dundee, Small-Polar-MMV Screening Library” (2021)).